{"source": "patent US20140154261A1", "binders": {"B1": {"name": "mouse monoclonal antibody #1 (antibody, V domains shown)", "VH": "GGGLVQPGGSMRLSCVASGFTFSNSWFNWVRQSPEKGLEWVAEIRLTSDNYAIYYAESVKGRFTISRDDSKSSVYLQMNNLRAEDTGIYYCTRPETARATFAYWGQGTTVTVSS", "VL": "DVLMTQTPLSLPVSLGDQASISCRSSQSIVHSNGNTYLEWYLQKPGQSPKVLIYKVFNRFSGVPDRFSGSGSGTDFTLKISRVEAEDLGVYYCFQGSHVPRTFGGGTKLNQTG"}}, "key": {"[1]": {"molecular_target": "CAPRIN-1 protein on the cell surface of human cancer cell lines (human) (UniProt Q14444)", "test": "flow cytometry on human breast cancer cell line MDA-MB-231V expressing CAPRIN-1, hybridoma supernatant"}, "[2]": {"molecular_target": "T1, human CAPRIN-1 protein having the amino acid sequence of SEQ ID NO: 2 (human) (UniProt Q14444)", "T1 sequence": "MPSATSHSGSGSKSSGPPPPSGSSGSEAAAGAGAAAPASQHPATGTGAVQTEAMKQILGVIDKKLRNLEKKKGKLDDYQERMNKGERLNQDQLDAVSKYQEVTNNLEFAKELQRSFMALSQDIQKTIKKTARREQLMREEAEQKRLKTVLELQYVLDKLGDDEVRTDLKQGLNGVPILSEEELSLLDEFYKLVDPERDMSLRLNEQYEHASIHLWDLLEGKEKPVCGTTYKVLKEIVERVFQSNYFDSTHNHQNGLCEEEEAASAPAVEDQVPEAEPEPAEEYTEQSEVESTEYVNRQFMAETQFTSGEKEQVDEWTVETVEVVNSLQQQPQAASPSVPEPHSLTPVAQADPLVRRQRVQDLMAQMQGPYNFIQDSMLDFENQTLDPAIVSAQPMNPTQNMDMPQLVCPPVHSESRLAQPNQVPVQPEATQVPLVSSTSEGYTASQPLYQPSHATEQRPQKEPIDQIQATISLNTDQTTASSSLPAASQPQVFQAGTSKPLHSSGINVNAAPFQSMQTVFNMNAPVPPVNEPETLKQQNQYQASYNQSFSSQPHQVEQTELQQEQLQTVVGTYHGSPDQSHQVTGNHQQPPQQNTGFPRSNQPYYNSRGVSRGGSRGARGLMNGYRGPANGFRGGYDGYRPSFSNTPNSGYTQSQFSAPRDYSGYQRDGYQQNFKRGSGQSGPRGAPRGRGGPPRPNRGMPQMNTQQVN", "test": "ELISA, CAPRIN-1 protein coated on plate, hybridoma culture supernatant"}}, "note": "Results are given in words; binding and its absence hold for the method and conditions named. Some entries that bind do so weakly or less than the wild type.", "data": [{"binder": "B1", "values": [{"measurement": "binding", "setting": "[1]", "result": "binds"}, {"measurement": "binding", "setting": "[2]", "result": "binds"}]}]}
